In the supplement of paper PMC6078165:
Values are relative to the signal before dosing, not to a vehicle control; the signal also falls without drug.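 Fibroblast labels name human fibroblasts: mostly primary ones from tissues such as uterus (C12385, HUF), lung (H6013), bone (Hs27A), adrenal (HADF) and skin (WS1), plus mammary HMF and breast cancer-associated Hs343T. The cancer cells are basal-like or mesenchymal-like triple-negative breast cancer lines. The paper calls a changed response a hit when it shifts by more than 3x the replicate standard deviation. The tissue of the other fibroblasts is not given here.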

Test system: Hs578T
Assay: relative JC-1 red fluorescence (viability) vs pre-drug, coculture with fibroblast (fraction); higher = more viable cancer cells
Description: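 JC-1 labelled TNBC cells cocultured 1:1 (1,500 cells each) with CellTrace Violet stained primary or stromal fibroblasts in 384-well plates in FluoroBrite medium, treated with one of 42 anticancer drugs at 0.1, 1, 10 or 100 uM. JC-1 red fluorescence (mitochondrial integrity in cancer cells only) was read by plate reader every 8 h for 72 h. Values are normalised to each well's pre-drug value. The stock of one drug was tenfold lower, so its dose labels may be too high.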

CS(=O)(=O)CCNCc1ccc(-c2ccc3ncnc(Nc4ccc(OCc5cccc(F)c5)c(Cl)c4)c3c2)o1 [Lapatinib]
relative JC-1 red fluorescence
Conditions	8 h	16 h	24 h	32 h	40 h	48 h	56 h	64 h	72 h
0.1 µM	0.89944	0.806	0.788	0.771	0.73	0.695	0.678	0.641	0.625
1 µM	0.9385	0.866	0.804	0.761	0.69758	0.6496	0.6309	0.583	0.552

relative JC-1 red fluorescence
Conditions	8 h	16 h	24 h	32 h	40 h	48 h	56 h	64 h	72 h
0.1 µM, coculture fibroblast: C12385	0.82787	0.7456	0.7	0.62	0.5696	0.5488	0.532	0.537	0.541
0.1 µM, coculture fibroblast: H6013	0.9034	0.8783	0.83075	0.8129	0.786	0.773	0.759	0.762	0.738
0.1 µM, coculture fibroblast: H6019	0.8135	0.714	0.703	0.638	0.605	0.5836	0.5527	0.5281	0.5109
0.1 µM, coculture fibroblast: H6076	0.92276	0.8439	0.8058	0.81	0.789	0.805	0.797	0.809	0.819
0.1 µM, coculture fibroblast: H6231	0.902	0.826	0.747	0.718	0.657	0.63	0.583	0.558	0.541
0.1 µM, coculture fibroblast: HADF	0.899	0.867	0.7984	0.757	0.7195	0.698	0.668	0.663	0.637
0.1 µM, coculture fibroblast: HCFa	0.8986	0.862	0.8	0.763	0.704	0.68	0.646	0.628	0.585
0.1 µM, coculture fibroblast: HCPF	0.9537	0.86559	0.792	0.764	0.715	0.69358	0.657	0.629	0.6117
0.1 µM, coculture fibroblast: HHSteC	0.921	0.848	0.791	0.758	0.709	0.674	0.642	0.627	0.599
0.1 µM, coculture fibroblast: HMF	0.921	0.85	0.798	0.786	0.742	0.73	0.685	0.677	0.665
0.1 µM, coculture fibroblast: HPFa	0.956	0.9	0.81	0.749	0.697	0.6604	0.6162	0.581	0.532
0.1 µM, coculture fibroblast: HUF	0.8654	0.7785	0.714	0.624	0.563	0.5287	0.498	0.49035	0.4759
0.1 µM, coculture fibroblast: Hs27A	0.88	0.827	0.795	0.758	0.72	0.7106	0.672	0.662	0.622
0.1 µM, coculture fibroblast: Hs343T	0.94	0.8598	0.789	0.787	0.732	0.708	0.662	0.646	0.638
0.1 µM, coculture fibroblast: WS1	0.8358	0.734	0.701	0.617	0.581	0.575	0.563	0.571	0.578
1 µM, coculture fibroblast: C12385	0.856	0.8075	0.784	0.717	0.666	0.646	0.618	0.61	0.603
1 µM, coculture fibroblast: H6013	0.919	0.933	0.924	0.905	0.8771	0.845	0.809	0.79	0.753
1 µM, coculture fibroblast: H6019	0.827	0.7816	0.781	0.69	0.669	0.651	0.629	0.621	0.597
1 µM, coculture fibroblast: H6076	0.941	0.9159	0.896	0.874	0.833	0.83	0.811	0.791	0.781
1 µM, coculture fibroblast: H6231	0.934	0.8514	0.833	0.795	0.738	0.717	0.678	0.654	0.629
1 µM, coculture fibroblast: HADF	0.859	0.861	0.807	0.777	0.742	0.721	0.6888	0.678	0.646
1 µM, coculture fibroblast: HCFa	0.8957	0.892	0.868	0.836	0.792	0.787	0.763	0.747	0.703
1 µM, coculture fibroblast: HCPF	0.9129	0.845	0.8302	0.7895	0.737	0.7208	0.711	0.674	0.654
1 µM, coculture fibroblast: HHSteC	0.894	0.868	0.818	0.775	0.735	0.712	0.678	0.651	0.613
1 µM, coculture fibroblast: HMF	0.914	0.8856	0.842	0.82	0.761	0.722	0.6987	0.6691	0.648
1 µM, coculture fibroblast: HPFa	0.932	0.87	0.838	0.806	0.779	0.755	0.715	0.694	0.65
1 µM, coculture fibroblast: HUF	0.901	0.791	0.755	0.662	0.608	0.576	0.539	0.519	0.505
1 µM, coculture fibroblast: Hs27A	0.9214	0.9097	0.891	0.86378	0.8097	0.793	0.758	0.76	0.707
1 µM, coculture fibroblast: Hs343T	0.852	0.902	0.838	0.782	0.834	0.796	0.752	0.716	0.694
1 µM, coculture fibroblast: WS1	0.8212	0.739	0.6864	0.61132	0.56231	0.549	0.53	0.523	0.518
